The record followed here is the supplement of paper PMC11348887.

Common to all, as to details: 5 µM; treatment: days 7-14 after plating, readout day 21
The subject of assay [1] is hPSC-derived cortical neurons (WA09). Nature of the assay: nucleus area z-score vs screen plate; higher = larger nuclei (more mature).
For assay [2] the test system is unchanged. The assay can be described thus: total neurite length per nucleus (MAP2) z-score; higher = more neurite growth.
For assay [3] the test system is unchanged. Nature of the assay: nucleus roundness z-score vs screen plate; higher = rounder nuclei (more mature).
For assay [4] the test system is unchanged. Nature of the assay: KCl-induced FOS+/EGR-1+ double-positive nuclei fraction z-score (KCl minus unstimulated); higher = stronger activity-induced IEG response.

Structures can show the parent of a compound that is named as a salt. This is one part of the list. Most values lie at the level of the controls, where differences are scatter.

Turning to `O=S(=O)(O)Oc1ccc(C(c2ccc(OS(=O)(=O)O)cc2)c2ccccn2)cc1` [Sodium Picosulfate], the nucleus area z-score in assay [1] was 0.123. Also, in assay [2], the “total neurite length per nucleus (z-score)” value was -0.17. The nucleus roundness z-score in assay [3] is 0.801. For the same compound, the “KCl-induced FOS+/EGR-1+ double-positive nuclei fraction z-score” value in assay [4] was -0.422.
For `CCS(=O)(=O)N1CCC([C@@H](C)n2c(C)c(C(=O)NCc3c(OC)cc(C)[nH]c3=O)c3ccccc32)CC1` the same measures were 0.162, 0.592, 1.39 and 1.59.
The matching figures for `CCc1c(O)cc(O)c(C(=O)c2ccc(OCCN3CCOCC3)c(OC)c2)c1CC(=O)N(CCOC)CCOC`: -8.91, -4.98, -4.46 and -0.895.
The matching figures for `O=C(NCc1ccccc1)c1csc(Nc2ccncn2)n1` [Thiazovivin]: 0.55, -0.246, 0.173 and 0.00892.
For the compound `Cc1cc(C)c(Nc2ccnc(Nc3ccc(C#N)cc3)n2)c(C)c1` [Dapivirine (TMC120)], the nucleus area z-score in assay [1] was 2.2. Further, the “total neurite length per nucleus (z-score)” value in assay [2] was -0.912. The compound also showed a nucleus roundness z-score in assay [3] of -0.15. In addition, the “KCl-induced FOS+/EGR-1+ double-positive nuclei fraction z-score” value in assay [4] is -0.683.
For `COc1ccc(-n2nc(C(N)=O)c3c2C(=O)N(c2ccc(N4CCCCC4=O)cc2)CC3)cc1` [Apixaban] the same measures were -0.0838, 1.53, 1.03 and 0.912.
The matching figures for `CC[C@H]1OC(=O)[C@H](C)[C@@H](O[C@H]2C[C@@](C)(OC)[C@@H](O)[C@H](C)O2)[C@H](C)[C@@H](O[C@@H]2O[C@H](C)C[C@H](N(C)C)[C@H]2O)[C@](C)(O)C[C@@H](C)C(=O)[C@H](C)[C@H]2OC(=O)O[C@@]21C` [Erythromycin Cyclocarbonate]: 0.964, 0.625, 0.369 and 1.78.
Compound `Nc1ncnc2c1ncn2[C@@H]1O[C@H](CO)[C@@H](O)[C@H]1O` [Adenosine] displayed a nucleus area z-score in assay [1] of 0.0202. Also, the “total neurite length per nucleus (z-score)” value in assay [2] turned out to be 0.325. The nucleus roundness z-score in assay [3] is 0.0348. The “KCl-induced FOS+/EGR-1+ double-positive nuclei fraction z-score” value in assay [4] is 0.591.
The matching figures for `CCN1CCCC1CNC(=O)c1cc(S(N)(=O)=O)ccc1OC` (stereo not drawn) [Sulpiride]: 0.00127, -1.38, -0.418 and 0.229.
The matching figures for `CCOc1cc(C(=O)N2CCC(N3CCN(C)CC3)CC2)ccc1Nc1ncc2c(n1)N(C1CCCC1)c1ccccc1C(=O)N2C`: -13, -4.37, -8.33 and -1.12.
For `Nc1nc(=O)[nH]cc1F` [Flucytosine] the same measures were 0.691, 0.842, -0.719 and 2.14.
In assay [1], `C=CC(=O)Nc1cccc(Oc2nc(Nc3ccc(N4CCN(C)CC4)cc3)ncc2Cl)c1` returned a nucleus area z-score of -1.78. Also, the “total neurite length per nucleus (z-score)” value in assay [2] was -0.364. In addition, the nucleus roundness z-score in assay [3] is -0.295. Besides, the “KCl-induced FOS+/EGR-1+ double-positive nuclei fraction z-score” value in assay [4] is -1.15.
For `CNC(=O)c1ccccc1Oc1nc(Nc2cc(OC)c(OC)c(OC)c2)ncc1Br` the same measures were -0.85, 0.775, 0.0394 and -0.525.
The matching figures for `O=C(c1ccccc1)c1ccc2nc(NC(=O)c3csc(C4CCN(c5ncnc6ccsc56)CC4)n3)[nH]c2c1`: -0.375, 0.887, -0.964 and 0.436.
The matching figures for `CCCCCCCCCCCCCCCCCCOP(=O)([O-])OC1CC[N+](C)(C)CC1` [Perifosine (KRX-0401)]: -0.161, -0.0372, 1.22 and 0.824.
`COc1cc(/C=C/C(=O)N2CCN(CC(=O)N3CCCC3)CC2)cc(OC)c1OC` [Cinepazide maleate] gave a nucleus area z-score in assay [1] of 1.87. For the same compound, the “total neurite length per nucleus (z-score)” value in assay [2] was determined as 0.0176. In addition, the nucleus roundness z-score in assay [3] came out at 0.536. For the same compound, the “KCl-induced FOS+/EGR-1+ double-positive nuclei fraction z-score” value in assay [4] came to 0.0488.
The matching figures for `O=C(CCCCCCC(=O)Nc1ccccc1)NO` [Vorinostat (SAHA_ MK0683)]: -8.14, -2.89, -3.58 and -1.22.
